In article PMC6991692 one finds binding data, which are given here for 4 substances.

Chains of the proteins cited; added tags and fusions are not shown.
UniProt Q8BGW2: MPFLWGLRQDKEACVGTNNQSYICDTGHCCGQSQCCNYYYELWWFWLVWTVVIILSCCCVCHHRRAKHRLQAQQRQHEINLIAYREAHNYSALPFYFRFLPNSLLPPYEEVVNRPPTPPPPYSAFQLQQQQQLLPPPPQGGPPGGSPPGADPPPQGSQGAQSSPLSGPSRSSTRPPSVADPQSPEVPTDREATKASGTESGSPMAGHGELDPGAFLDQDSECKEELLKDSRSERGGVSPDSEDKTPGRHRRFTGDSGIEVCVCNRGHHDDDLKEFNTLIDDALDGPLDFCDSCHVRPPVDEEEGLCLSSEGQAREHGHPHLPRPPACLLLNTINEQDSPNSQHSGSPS
UniProt Q8C863: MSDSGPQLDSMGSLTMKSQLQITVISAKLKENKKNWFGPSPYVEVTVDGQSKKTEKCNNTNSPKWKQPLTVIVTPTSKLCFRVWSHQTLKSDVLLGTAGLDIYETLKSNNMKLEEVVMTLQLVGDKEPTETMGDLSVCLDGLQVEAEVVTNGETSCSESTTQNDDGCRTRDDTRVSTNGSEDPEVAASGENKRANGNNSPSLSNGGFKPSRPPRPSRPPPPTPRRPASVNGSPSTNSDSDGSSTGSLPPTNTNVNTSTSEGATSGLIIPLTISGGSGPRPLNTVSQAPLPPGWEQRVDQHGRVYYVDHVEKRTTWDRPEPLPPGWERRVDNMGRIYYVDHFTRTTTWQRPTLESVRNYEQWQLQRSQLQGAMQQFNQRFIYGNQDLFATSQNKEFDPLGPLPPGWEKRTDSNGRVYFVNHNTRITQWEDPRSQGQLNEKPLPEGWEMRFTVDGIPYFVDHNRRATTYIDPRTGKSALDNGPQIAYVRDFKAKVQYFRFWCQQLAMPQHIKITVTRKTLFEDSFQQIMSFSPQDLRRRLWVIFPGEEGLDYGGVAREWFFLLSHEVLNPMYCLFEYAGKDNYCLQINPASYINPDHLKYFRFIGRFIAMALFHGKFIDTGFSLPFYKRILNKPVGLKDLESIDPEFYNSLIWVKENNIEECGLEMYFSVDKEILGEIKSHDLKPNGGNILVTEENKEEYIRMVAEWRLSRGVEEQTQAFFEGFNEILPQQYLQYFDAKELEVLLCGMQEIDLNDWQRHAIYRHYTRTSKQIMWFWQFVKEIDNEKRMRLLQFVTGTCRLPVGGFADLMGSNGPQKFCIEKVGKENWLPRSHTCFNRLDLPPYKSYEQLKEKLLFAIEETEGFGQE
UniProt Q9DBH0: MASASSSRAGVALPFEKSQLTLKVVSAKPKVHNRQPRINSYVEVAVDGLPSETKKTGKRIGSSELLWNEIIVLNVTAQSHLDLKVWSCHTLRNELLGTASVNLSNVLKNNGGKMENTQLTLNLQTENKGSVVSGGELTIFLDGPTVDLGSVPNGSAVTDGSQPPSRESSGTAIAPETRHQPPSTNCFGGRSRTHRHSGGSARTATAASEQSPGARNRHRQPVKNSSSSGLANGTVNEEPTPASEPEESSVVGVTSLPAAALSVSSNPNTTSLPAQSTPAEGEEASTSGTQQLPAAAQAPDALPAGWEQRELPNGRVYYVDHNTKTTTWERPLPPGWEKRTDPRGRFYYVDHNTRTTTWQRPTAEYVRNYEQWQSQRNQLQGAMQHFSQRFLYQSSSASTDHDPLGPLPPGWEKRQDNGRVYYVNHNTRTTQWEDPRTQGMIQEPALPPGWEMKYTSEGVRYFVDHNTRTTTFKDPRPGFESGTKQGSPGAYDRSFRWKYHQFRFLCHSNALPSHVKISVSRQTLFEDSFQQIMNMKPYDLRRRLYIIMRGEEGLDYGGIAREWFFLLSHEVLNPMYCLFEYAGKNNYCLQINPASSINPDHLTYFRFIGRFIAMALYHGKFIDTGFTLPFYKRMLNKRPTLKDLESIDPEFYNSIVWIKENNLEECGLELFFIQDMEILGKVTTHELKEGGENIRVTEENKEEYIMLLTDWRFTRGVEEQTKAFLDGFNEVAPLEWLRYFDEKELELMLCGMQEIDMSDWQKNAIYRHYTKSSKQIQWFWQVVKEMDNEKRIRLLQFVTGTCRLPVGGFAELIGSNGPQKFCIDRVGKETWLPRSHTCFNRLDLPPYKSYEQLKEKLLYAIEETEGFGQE

These are yes or no findings as the source states them, for the method shown. In cells and extracts the contact can be indirect. Some results given as binding are weak or reduced against the parent protein; the word gives no strength.

The target in assay [1] is WBP1L‐Myc (wild‐type WBP1L construct) (UniProt Q8BGW2). The experiment in a line: co-IP; HEK293 cells transfected with WBP1L‐Myc or WBP1LΔN‐Myc together with ITCH or WWP2; WBP1L immunoprecipitation, immunoblot with antibody to ITCH or WWP2.
Assay [2] addresses wild‐type WBP1L expressed in J774 macrophage‐like cell line (UniProt Q8BGW2). Put plainly: co-IP; J774 macrophage‐like cell line expressing wild‐type WBP1L or WBP1LΔN; endogenous ITCH co‐isolated (Figure S5).
The target of assay [3] is WBP1L, endogenous in bone marrow‐derived macrophages (mouse (endogenous in BMDM)) (UniProt Q8BGW2). Put plainly: co-IP; endogenous proteins; WBP1L immunoprecipitates from WT or Wbp1l−/− BMDM immunoblotted with antibody to WWP1 and WBP1L. For orientation: Immunoblotting shows a protein as a band on a membrane.

With “ITCH, co‐expressed in HEK293 cells (from UniProt Q8C863 1-864) (enzyme)”, the binding entry in assay [1] is “binds”.

Turning to “ITCH, endogenous (from UniProt Q8C863 1-864) (enzyme)”, in assay [2], the binding result was “binds”. Take “WWP1, endogenous (from UniProt Q8BZZ3 1-918) (enzyme)”: the binding entry in assay [3] is “binds”. For the substance “WWP2, co‐expressed in HEK293 cells (from UniProt Q9DBH0 1-870) (enzyme)”, the binding entry in assay [1] is listed as “binds”.
